Source: patent US20160215013

Target: T1, KOD exonuclease-minus DNA polymerase (UniProt P77933)
T1 sequence (looked up, limits assumed): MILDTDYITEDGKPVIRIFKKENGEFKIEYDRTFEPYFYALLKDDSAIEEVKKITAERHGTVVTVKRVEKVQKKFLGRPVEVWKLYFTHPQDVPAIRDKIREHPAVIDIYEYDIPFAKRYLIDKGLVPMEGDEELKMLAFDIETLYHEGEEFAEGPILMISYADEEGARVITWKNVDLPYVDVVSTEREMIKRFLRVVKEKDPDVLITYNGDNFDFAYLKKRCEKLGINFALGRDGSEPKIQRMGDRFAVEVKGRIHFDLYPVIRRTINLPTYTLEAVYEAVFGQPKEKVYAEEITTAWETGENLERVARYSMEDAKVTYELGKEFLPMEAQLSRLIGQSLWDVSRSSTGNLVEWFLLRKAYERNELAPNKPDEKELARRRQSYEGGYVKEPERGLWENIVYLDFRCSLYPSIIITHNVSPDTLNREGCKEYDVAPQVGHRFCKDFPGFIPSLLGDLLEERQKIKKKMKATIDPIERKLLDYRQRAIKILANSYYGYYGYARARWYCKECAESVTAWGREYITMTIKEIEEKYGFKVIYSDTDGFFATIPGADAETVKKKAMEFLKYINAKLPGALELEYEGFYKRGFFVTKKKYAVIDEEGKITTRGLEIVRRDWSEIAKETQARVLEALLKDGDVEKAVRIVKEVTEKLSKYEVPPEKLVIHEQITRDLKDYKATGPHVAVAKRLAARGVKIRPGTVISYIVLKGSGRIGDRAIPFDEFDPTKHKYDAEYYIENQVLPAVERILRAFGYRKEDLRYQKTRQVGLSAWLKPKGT
Assay: activity assay
Conditions: primer extension with dCTP; 119% with 9a (BndC), 113% with 9b (NapdC), 120% with 9c (PPdC), 5% without dC; Mg2+, pH 7.8, 65 C 1 h; purified recombinant protein; protein details: EMD Novagen; label: 32P on primer

“TTTTTTTTCTTCTTCTCCTTTCTCTTCCCAAAATCACACGGACCCAGGGCATTCTAGATATGGTTTACGCTCAAGCGAACTTGCCGTCCTGAGTGTAAAGAGGGAAAGAGGGCAGGGTGTGGCATATATAT / ATATATATGCCACACCCTGCCCTC [primer extension template/primer]” showed an activity on this sequence (% full length) of 100.

For at least one entry, the source does not settle the construct or the ends of the probe. Protein sequences can lack the tags named with them.
